Reference: patent US20070190603A1 (MIT, published 2007)
Results are given in words; binding and its absence hold for the method and conditions named. Some binding calls cover weakened binding; strength is not graded here.

Legend:
[1] = target: RAD16 peptide, H2N-…-COOH; experiment: membrane formation test
[2] = target: RAD16 peptide, H2N-…-COOH; experiment: self-assembly into a macroscopic membrane in PBS; phase-contrast microscopy and Congo Red staining
[3] = target: RAD16 peptide, H2N-…-COOH; experiment: self-assembly into a macroscopic membrane in DMEM; phase-contrast microscopy and Congo Red staining

Measured: binding

B1: RAD16 peptide, H2N-…-COOH (peptide)
peptide: ARARADADARARADAD
binds: all assays above
